From the supplement of paper PMC10849652
The other results are listed elsewhere or left out.

Amino acid sequences for entries named in this document (tags omitted). A change or cut given only in a name is not applied to a line headed by its entry.
UniProt O95059: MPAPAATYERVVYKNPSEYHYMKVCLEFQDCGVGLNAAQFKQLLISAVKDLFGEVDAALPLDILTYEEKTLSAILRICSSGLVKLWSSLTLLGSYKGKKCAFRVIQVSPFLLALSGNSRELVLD
UniProt Q86VV8: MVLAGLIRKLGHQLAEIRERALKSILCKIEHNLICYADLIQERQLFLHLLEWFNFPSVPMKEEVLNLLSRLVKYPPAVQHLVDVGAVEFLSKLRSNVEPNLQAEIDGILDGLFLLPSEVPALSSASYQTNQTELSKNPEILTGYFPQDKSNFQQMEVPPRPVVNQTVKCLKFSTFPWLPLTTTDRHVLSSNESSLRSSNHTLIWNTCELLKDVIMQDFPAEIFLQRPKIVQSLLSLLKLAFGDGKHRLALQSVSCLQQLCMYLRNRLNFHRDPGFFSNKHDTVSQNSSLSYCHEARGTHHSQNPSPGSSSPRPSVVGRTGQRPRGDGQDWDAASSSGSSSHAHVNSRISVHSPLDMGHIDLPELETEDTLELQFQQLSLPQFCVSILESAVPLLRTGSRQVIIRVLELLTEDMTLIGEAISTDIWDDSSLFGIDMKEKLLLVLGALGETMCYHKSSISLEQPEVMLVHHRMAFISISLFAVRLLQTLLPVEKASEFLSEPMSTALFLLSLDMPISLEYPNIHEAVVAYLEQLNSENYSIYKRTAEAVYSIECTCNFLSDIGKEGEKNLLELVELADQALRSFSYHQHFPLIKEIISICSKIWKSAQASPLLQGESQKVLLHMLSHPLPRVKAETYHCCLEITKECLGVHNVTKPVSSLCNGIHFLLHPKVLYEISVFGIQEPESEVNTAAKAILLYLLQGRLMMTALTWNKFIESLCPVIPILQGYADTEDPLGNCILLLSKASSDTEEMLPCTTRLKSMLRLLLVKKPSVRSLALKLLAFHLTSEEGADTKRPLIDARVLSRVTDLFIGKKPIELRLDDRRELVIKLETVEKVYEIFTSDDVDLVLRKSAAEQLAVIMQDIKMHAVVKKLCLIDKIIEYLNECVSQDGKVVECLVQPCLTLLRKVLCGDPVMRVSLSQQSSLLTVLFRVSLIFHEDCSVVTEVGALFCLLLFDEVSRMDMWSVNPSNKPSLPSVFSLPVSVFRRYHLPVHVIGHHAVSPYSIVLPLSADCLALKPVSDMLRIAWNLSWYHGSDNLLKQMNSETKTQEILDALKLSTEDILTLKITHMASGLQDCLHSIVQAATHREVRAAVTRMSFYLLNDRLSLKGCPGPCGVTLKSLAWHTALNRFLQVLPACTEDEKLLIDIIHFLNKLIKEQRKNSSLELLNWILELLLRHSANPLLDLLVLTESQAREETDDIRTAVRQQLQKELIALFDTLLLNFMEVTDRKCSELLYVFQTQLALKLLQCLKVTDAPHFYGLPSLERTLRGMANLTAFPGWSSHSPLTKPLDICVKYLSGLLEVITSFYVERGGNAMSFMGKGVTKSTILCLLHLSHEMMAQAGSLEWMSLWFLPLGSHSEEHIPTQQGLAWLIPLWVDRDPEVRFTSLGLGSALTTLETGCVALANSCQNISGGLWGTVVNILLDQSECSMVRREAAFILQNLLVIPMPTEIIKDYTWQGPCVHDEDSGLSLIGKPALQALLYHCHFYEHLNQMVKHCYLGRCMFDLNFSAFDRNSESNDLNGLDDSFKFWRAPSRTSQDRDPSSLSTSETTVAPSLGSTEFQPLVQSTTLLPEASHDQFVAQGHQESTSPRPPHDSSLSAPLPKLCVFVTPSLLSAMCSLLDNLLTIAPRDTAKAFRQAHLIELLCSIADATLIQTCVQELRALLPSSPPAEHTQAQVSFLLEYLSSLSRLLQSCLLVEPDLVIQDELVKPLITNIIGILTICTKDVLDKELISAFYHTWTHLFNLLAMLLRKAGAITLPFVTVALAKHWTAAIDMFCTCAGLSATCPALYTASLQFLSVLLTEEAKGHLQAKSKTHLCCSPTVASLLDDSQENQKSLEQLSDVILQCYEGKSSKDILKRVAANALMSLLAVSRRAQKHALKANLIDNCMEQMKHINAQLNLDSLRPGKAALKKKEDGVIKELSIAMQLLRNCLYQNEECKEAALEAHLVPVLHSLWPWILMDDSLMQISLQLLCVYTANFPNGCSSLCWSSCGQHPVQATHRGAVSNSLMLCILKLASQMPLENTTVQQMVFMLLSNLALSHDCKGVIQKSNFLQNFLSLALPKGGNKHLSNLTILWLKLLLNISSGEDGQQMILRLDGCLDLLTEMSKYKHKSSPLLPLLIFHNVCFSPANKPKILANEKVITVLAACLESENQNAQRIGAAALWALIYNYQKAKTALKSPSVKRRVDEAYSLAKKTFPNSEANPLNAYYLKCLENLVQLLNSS
UniProt Q9Y3A4: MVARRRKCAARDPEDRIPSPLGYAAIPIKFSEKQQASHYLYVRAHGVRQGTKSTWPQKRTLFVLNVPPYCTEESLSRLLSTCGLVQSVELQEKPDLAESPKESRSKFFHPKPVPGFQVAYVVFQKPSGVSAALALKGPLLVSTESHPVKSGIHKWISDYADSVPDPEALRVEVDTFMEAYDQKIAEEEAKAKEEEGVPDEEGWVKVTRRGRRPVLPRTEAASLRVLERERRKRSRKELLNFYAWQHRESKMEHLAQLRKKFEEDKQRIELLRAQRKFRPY
UniProt Q96T23: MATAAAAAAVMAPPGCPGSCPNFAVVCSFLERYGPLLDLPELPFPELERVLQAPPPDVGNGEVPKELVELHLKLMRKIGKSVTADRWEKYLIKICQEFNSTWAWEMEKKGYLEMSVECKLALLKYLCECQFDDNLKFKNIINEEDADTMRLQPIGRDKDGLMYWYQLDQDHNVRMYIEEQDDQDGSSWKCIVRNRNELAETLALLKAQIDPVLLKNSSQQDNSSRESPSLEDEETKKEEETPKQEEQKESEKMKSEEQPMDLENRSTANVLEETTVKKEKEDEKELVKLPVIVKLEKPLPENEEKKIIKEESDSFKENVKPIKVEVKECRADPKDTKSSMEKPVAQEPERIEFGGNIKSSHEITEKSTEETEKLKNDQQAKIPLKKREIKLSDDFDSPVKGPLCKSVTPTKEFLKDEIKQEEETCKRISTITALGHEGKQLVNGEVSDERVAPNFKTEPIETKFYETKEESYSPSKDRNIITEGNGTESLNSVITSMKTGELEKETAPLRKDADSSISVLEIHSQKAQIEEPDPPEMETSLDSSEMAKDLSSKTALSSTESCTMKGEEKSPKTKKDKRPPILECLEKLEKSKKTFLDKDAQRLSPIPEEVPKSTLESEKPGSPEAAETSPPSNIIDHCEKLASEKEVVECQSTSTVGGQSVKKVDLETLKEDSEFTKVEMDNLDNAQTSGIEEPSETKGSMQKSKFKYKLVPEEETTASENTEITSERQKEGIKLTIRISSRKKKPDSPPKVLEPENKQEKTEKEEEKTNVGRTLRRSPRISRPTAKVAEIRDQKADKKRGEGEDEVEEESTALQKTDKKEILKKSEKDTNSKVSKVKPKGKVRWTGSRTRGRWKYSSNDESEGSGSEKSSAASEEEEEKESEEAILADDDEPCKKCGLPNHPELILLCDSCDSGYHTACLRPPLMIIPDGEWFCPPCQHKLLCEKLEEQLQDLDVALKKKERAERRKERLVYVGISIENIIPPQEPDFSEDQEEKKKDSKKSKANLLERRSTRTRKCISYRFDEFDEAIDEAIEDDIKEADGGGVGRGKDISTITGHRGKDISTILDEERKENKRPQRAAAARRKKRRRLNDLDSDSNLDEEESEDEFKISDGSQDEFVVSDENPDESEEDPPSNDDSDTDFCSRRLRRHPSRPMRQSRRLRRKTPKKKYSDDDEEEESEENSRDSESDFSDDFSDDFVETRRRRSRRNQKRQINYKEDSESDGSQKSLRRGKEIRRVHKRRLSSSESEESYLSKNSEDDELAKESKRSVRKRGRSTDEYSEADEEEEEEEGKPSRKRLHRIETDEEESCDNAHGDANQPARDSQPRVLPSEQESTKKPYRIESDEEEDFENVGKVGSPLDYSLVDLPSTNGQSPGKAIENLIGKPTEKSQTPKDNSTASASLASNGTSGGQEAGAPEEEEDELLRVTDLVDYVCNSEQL
UniProt P31350, whole entry, looked up: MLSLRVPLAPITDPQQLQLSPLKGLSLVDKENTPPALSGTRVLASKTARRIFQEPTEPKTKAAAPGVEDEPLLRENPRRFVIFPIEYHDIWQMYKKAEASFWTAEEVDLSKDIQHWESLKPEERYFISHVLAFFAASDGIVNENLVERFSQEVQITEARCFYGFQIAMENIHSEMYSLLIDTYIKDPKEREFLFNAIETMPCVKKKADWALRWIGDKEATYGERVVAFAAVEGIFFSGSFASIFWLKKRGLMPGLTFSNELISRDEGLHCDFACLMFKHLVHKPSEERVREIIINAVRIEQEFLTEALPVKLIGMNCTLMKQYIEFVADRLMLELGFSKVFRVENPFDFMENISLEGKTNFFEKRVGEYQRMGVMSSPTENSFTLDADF
UniProt Q15050: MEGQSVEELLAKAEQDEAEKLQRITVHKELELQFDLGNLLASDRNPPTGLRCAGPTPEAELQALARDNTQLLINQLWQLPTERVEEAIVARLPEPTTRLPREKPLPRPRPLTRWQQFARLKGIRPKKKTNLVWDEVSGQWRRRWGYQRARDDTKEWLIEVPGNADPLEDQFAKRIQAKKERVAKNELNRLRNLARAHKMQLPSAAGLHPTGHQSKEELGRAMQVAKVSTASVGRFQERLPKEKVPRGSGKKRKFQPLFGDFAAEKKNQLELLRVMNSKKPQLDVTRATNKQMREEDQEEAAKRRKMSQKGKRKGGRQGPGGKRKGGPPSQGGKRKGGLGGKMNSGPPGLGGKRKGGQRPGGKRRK
UniProt P04843: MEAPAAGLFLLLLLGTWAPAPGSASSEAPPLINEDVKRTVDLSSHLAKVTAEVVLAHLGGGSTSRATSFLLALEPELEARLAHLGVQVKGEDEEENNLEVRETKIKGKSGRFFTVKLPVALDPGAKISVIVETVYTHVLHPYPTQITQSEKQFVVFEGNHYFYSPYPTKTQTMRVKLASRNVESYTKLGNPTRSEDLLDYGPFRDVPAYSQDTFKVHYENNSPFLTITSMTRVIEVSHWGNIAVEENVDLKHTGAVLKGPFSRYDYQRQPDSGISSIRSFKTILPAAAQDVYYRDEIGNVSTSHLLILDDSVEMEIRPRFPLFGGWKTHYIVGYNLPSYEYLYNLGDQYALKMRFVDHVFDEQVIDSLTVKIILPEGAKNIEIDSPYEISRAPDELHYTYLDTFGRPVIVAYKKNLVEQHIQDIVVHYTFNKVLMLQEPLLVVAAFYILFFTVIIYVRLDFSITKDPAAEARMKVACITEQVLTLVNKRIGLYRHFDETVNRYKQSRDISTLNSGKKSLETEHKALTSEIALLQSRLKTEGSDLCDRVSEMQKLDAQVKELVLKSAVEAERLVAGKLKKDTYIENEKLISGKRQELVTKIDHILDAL
UniProt P57060: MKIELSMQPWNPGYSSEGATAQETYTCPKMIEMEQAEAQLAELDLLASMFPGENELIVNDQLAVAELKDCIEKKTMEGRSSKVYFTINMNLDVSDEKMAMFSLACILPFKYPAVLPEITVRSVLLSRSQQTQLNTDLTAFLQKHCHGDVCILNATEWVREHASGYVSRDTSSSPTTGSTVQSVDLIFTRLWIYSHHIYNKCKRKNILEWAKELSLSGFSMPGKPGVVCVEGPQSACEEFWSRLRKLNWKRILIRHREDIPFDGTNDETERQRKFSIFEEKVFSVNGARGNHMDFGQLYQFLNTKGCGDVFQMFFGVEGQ
UniProt Q9HCY8: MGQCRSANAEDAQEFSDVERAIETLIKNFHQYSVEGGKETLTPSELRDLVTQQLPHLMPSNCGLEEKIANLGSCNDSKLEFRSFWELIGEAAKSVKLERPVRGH
UniProt Q9BUL9: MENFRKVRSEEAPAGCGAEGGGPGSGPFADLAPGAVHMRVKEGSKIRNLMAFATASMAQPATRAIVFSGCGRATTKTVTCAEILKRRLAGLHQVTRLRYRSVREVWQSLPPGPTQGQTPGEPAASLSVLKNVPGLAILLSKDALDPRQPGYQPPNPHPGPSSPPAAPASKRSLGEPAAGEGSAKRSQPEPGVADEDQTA
UniProt Q9HA92: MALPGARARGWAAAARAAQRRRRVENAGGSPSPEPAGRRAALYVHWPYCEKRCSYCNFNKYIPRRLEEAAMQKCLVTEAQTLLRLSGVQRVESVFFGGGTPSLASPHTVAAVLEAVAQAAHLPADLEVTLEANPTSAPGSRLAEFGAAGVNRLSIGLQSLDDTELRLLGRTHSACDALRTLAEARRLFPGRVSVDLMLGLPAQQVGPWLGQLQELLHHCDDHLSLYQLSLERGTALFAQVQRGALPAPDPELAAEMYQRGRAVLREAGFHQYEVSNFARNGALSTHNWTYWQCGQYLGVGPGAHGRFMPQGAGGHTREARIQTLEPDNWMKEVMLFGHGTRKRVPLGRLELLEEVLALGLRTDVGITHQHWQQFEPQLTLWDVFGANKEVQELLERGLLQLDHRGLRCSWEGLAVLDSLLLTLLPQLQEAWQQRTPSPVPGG

Compound: CC(C)(O)CC(=O)NCCn1ccc2ncnc(Nc3ccc(Oc4cccc(C(F)(F)F)c4)c(Cl)c3)c21
Assay: log2 fold change, soluble protein after heating vs DMSO (PISA); higher = thermal stabilisation; K562 lysate, 10 uM; active = over 0.2 and 3.5 SD of the protein, either way, in both replicates (recomputed)
Procedure, shortened: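 Dounce homogenisation of K562 pellets in PBS pH 7.4 with 1 mM MgCl2 produced a crude extract, used at 1 mg/mL protein. Exposure to 10 μM compound lasted 30 min, and aliquots were then heated for 3 min across 48°C-58°C, pooled and brought to 0.5% NP-40 at 4°C. The supernatant after 21,000xg for 90 min was quantified by TMTpro 16plex LC-MS/MS with channel sums equalised. Duplicate values are given as log-two fold change in thermal stability relative to solvent controls.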

log2 fold change, inactive:
RPS27A (UniProt P62979) -0.073, RPP14 (UniProt O95059) -0.016, RUFY3 isoform 2 (UniProt Q7L099) 0.008, RPL36AL (UniProt Q969Q0) 0.088, RPSA (UniProt P08865) -0.019, RTTN (UniProt Q86VV8) -0.137, RYR1 (UniProt P21817) -0.012, RPS23 (UniProt P62266) -0.033, RYBP (UniProt Q8N488) -0.035, RRP7A (UniProt Q9Y3A4) -0.055, RPS24 isoform 4 (UniProt P62847) -0.048, RPS28 (UniProt P62857) -0.022, RPS17 (UniProt P08708) 0.016, RSF1 (UniProt Q96T23) -0.043, RRM2 isoform 2 (UniProt P31350) 0.038, RRS1 (UniProt Q15050) -0.042, RPL39P5 (UniProt Q59GN2) -0.066, RPN1 (UniProt P04843) -0.035, RPP25L (UniProt Q8N5L8) -0.023, RWDD2B (UniProt P57060) 0, S100A14 (UniProt Q9HCY8) 0.548, RPP25 (UniProt Q9BUL9) -0.063, RSAD1 (UniProt Q9HA92) -0.12
